Measurements from patent publication US20230248788A1, “COMPOSITIONS AND RELATED METHODS FOR SUPPORTING COMPANION ANIMALS WITH GASTROINTESTINAL DISORDERS” (priority 2020, published 2023).
At least one compound was matched to its structure with a doubt left.

What was measured:
L. brevis WF-1B [1] = conditions: EFSA microbiological cut-off value; cited from earlier work
L. brevis WF-1B [2] = test: Antibiotic susceptibility assay, broth microdilution; assay type: cell-based, Levilactobacillus brevis; conditions: MIC compared with EFSA cut-off value
Description: Broth microdilution was used to determine the susceptibility of the L. brevis WF-1B isolate against eight commonly used clinical antibiotics. Broth micro-dilution was performed following the methods according to: International Organization for Standardization, Milk and milk products—Determination of the minimal inhibitory concentration (MIC) of antibiotics applicable to bifidobacteria and non-enterrococcal lactic acid bacteria (LAB) (ISO 10932:2012). Antibiotic stock solutions were prepared following the methods according to: CLSI, Performance Standards for Antimicrobial Susceptibility Testing, 23rd edition, CLSI Standard M100, Wayne, Pa.: Clinical and Laboratory Standards Institute; 2013. The measured minimum inhibitory concentrations (MICs) and microbiological cut-off values from the antibiotic susceptibility assays for L. brevis WF-1B are shown below in Table 5.

## CCC[C@@H]1C[C@@H](C(=O)N[C@@H]([C@H]2O[C@H](SC)[C@H](O)[C@@H](O)[C@H]2O)[C@H](C)Cl)N(C)C1 [Clindamycin]
L. brevis WF-1B [1]
  Cut-off value: 1 µg/mL
L. brevis WF-1B [2]
  susceptibility of L. brevis WF-1B to the antibiotic: resistant

## NC[C@H]1O[C@H](O[C@H]2[C@H](O)[C@@H](O[C@H]3O[C@H](CO)[C@@H](O)[C@H](N)[C@H]3O)[C@H](N)C[C@@H]2N)[C@H](O)[C@@H](O)[C@@H]1O [Kanamycin]
L. brevis WF-1B [1]
  Cut-off value: 32 µg/mL
L. brevis WF-1B [2]
  susceptibility of L. brevis WF-1B to the antibiotic: resistant

## CN(C)[C@@H]1C(O)=C(C(N)=O)C(=O)[C@@]2(O)C(O)=C3C(=O)c4c(O)cccc4[C@@](C)(O)[C@H]3C[C@@H]12 [Tetracycline]
L. brevis WF-1B [1]
  Cut-off value: 8 µg/mL
L. brevis WF-1B [2]
  susceptibility of L. brevis WF-1B to the antibiotic: resistant
